The test has as its target ATM kinase (human (endogenous in IMR90)) (UniProt Q13315). The experiment in a line: co-IP; extracts (0.42 M KCl, diluted to 150 mM KCl) of retrovirally infected cells; IP with anti-ATM (AB3) or anti-Cyclin D1 antibody and protein G-Sepharose, 4 °C; TRF2 or Nova1 detected in the pellets by immunoblotting. (A western blot detects proteins with antibodies after separation by electrophoresis.)

Protein sequences, listed by entry. Tags and fused reporters are not part of them.
UniProt Q13315: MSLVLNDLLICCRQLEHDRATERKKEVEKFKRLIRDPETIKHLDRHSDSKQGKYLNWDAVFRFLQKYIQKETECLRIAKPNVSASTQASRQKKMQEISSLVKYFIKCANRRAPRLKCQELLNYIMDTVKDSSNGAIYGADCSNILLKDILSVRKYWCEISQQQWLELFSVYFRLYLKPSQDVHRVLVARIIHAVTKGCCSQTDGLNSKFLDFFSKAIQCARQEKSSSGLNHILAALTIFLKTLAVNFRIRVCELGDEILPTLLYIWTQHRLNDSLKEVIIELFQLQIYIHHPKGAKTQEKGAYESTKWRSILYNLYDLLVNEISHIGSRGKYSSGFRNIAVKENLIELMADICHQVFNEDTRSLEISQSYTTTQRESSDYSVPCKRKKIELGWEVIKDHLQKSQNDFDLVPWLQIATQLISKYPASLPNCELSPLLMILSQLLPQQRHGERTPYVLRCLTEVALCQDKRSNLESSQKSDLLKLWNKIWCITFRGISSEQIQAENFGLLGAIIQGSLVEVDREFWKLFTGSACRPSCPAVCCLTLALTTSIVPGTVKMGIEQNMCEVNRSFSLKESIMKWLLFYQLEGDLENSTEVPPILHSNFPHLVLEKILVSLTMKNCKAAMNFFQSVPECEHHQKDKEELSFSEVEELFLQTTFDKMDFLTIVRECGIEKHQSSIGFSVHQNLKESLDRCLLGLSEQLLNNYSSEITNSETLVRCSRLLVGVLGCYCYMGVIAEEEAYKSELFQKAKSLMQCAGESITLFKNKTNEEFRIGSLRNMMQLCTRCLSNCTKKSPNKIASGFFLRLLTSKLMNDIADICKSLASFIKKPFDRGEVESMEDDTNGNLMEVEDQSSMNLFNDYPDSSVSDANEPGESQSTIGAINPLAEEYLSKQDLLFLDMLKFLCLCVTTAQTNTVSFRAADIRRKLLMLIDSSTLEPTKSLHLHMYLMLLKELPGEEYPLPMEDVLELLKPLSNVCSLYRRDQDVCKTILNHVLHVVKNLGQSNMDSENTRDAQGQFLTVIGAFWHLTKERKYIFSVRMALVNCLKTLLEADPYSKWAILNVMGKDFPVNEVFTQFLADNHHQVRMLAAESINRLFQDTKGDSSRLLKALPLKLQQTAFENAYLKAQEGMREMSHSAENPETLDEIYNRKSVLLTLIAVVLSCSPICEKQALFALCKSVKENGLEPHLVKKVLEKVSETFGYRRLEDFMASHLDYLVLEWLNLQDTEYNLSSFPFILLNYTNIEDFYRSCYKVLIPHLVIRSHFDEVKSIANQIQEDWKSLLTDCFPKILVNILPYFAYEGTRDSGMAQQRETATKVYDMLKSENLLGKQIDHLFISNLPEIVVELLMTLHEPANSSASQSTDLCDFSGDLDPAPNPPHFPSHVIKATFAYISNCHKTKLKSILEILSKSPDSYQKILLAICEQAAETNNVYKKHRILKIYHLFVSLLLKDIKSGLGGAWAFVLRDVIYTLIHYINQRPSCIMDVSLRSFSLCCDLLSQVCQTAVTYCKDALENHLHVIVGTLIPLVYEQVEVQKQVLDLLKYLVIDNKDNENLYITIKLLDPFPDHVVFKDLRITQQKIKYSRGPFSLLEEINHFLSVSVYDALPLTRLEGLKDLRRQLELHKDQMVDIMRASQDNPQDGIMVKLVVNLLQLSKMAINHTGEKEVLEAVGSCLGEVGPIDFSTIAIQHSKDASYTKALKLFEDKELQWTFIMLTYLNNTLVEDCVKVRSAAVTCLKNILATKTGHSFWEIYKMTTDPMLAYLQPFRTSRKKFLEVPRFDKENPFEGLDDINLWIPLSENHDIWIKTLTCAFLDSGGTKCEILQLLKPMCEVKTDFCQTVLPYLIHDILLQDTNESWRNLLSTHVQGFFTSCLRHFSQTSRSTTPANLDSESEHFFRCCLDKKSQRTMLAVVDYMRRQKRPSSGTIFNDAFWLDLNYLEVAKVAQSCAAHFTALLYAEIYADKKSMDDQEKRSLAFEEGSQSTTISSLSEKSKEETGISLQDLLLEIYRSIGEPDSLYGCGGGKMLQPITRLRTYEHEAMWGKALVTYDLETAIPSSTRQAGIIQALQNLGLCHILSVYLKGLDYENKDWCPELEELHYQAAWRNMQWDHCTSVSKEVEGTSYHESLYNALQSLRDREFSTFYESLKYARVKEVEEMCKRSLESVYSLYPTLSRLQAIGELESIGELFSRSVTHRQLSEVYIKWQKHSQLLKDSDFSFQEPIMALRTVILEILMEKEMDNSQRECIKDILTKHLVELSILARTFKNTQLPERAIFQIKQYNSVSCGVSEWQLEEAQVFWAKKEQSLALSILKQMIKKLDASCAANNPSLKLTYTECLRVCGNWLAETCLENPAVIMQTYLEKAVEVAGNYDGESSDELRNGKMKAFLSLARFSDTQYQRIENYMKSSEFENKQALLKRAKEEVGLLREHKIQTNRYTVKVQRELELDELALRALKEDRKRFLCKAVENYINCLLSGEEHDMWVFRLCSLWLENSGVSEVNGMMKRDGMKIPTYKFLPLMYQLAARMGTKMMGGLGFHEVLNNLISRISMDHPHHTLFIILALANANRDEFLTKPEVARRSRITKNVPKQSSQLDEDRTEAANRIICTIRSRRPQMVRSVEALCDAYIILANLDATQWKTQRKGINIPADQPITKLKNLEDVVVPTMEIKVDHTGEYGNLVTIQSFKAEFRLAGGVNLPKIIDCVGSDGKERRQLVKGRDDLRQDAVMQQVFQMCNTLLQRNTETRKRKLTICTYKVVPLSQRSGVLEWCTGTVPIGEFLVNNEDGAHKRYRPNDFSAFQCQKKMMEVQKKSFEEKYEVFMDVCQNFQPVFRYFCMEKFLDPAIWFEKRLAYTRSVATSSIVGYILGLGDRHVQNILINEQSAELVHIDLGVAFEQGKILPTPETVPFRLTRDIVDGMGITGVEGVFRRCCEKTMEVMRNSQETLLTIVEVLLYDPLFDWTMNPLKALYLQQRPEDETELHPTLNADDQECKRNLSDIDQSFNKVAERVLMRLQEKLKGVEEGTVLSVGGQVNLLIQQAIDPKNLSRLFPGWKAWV

These are yes or no findings as the source states them, for the method shown. Binding seen in cells or lysates may run through a third protein.

B1: Nova1 (protein, UniProt P51513 1-507)
chain: MMAAAPIQQNGTHTGVPIDLDPPDSRKRPLEAPPEAGSTKRTNTGEDGQYFLKVLIPSYAAGSIIGKGGQTIVQLQKETGATIKLSKSKDFYPGTTERVCLIQGTVEALNAVHGFIAEKIREMPQNVAKTEPVSILQPQTTVNPDRIKQTLPSSPTTTKSSPSDPMTTSRANQVKIIVPNSTAGLIIGKGGATVKAVMEQSGAWVQLSQKPDGINLQERVVTVSGEPEQNRKAVELIIQKIQEDPQSGSCLNISYANVTGPVANSNPTGSPYANTAEVLPTAAAAAGLLGHANLAGVAAFPAVLSGFTGNDLVAITSALNTLASYGYNLNTLGLGLSQAAATGALAAAAASANPAAAAANLLATYASEASASGSTAGGTAGTFALGSLAAATAATNGYFGAASPLAASAILGTEKSTDGSKDVVEIAVPENLVGAILGKGGKTLVEYQELTGARIQISKKGEFVPGTRNRKVTITGTPAATQAAQYLITQRITYEQGVRAANPQKVG
Take B1: the binding entry is “no binding”.

Source of the values: article PMC509302.
